PubChem BioAssay AID493246 | Drosophila RNAi Screening Center | 2011

Aim: 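Genome-wide search for dsRNAs that reduce cell number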 (primary screen)
Cell system: Drosophila Kc and S2R+ cells
Knock-down reagent: long dsRNA against Drosophila genes
Measurement: 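Cell number per well after knock-down, printed as raw plate values; calls were based on per-plate z-scores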
Scale: Kc cell number and S2R+ cell number: higher = more cells remaining
Active means: 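Counted as a hit if cell number falls by a z-score of at least 3 within its plate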
The screen tested about 21,000 reagents; below is a random part of those that have a named target and a result. Over the whole deposit, 429 (2%) were called active. 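Values are raw and not normalised between plates; calls rest on per-plate z-scores that were not deposited.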 The numbers tell different reagents against one gene apart. The record does not give: the amount of reagent, the time to read-out.

| Gene | dsRNA no. | Kc cell number, rep 1 | Kc cell number, rep 2 | S2R+ cell number, rep 1 | S2R+ cell number, rep 2 | Call |
| --- | --- | --- | --- | --- | --- | --- |
| Eglp3 (Entomoglyceroporin 3) | 1 | 1.62e6 | 1.65e6 | 1.22e6 | 1.31e6 | inactive |
| Ance-3 | 1 | 1.66e6 | 1.70e6 | 1.33e6 | 1.51e6 | inactive |
| Ance-3 | 2 | 1.56e6 | 1.67e6 | 1.23e6 | 1.42e6 | inactive |
| CG4459 | 1 | 1.17e6 | 1.18e6 | 1.16e6 | 1.18e6 | inactive |
| CG34050 (retired record) | 1 | 1.07e6 | 1.04e6 | 6.76e5 | 8.55e5 | active |
| CG1603 | 1 | 1.26e6 | 1.39e6 | 9.04e5 | 8.67e5 | inactive |
| CG30338 | 1 | 1.47e6 | 1.51e6 | 9.92e5 | 1.07e6 | inactive |
| Taf11 (TBP-associated factor 11) | 1 | 1.58e6 | 1.61e6 | 1.24e6 | 1.41e6 | inactive |
| CG32240 | 1 | 1.60e6 | 1.62e6 | 1.03e6 | 1.18e6 | inactive |
| CG34435 | 1 | 1.54e6 | 1.51e6 | 1.01e6 | 1.12e6 | inactive |
| vimar (visceral mesodermal armadillo-repeats) | 1 | 1.40e6 | 1.51e6 | 1.02e6 | 1.14e6 | inactive |
| Sry-beta (Serendipity beta) | 1 | 4.97e5 | – | 8.37e5 | – | inactive |
| clt (cricklet) | 1 | 1.46e6 | 1.54e6 | 1.21e6 | 3.37e5 | inactive |
| l(3)05822 (lethal (3) 05822) | 1 | 1.63e6 | 1.71e6 | 1.20e6 | 1.29e6 | inactive |
| vg (vestigial) | 1 | 1.41e6 | 1.53e6 | 1.06e6 | 1.18e6 | inactive |
| CG11878 | 1 | 1.70e6 | 1.79e6 | 1.05e6 | 1.15e6 | inactive |
| Galphaq (G protein alpha subunit q) | 1 | 1.36e6 | 1.40e6 | 1.21e6 | 1.29e6 | inactive |
| CG5391 | 1 | 1.35e6 | 1.36e6 | 1.09e6 | 1.19e6 | inactive |
| CG16965 | 1 | 1.61e6 | 1.66e6 | 1.35e6 | 1.48e6 | inactive |
| Hsf (Heat shock factor) | 1 | 1.26e6 | 1.32e6 | 1.08e6 | 1.14e6 | inactive |
| Spn47C (Serpin 47C) | 1 | 1.19e6 | 1.29e6 | 1.01e6 | 1.01e6 | inactive |
| Ccdc58 (Coiled-coil domain-containing 58) | 1 | 1.47e6 | 1.54e6 | 1.24e6 | 1.25e6 | inactive |
| Acbp5 (Acyl-CoA binding protein 5) | 1 | 1.43e6 | 1.58e6 | 1.22e6 | 1.30e6 | inactive |
| snu (snustorr) | 1 | 5.91e5 | – | 8.62e5 | – | inactive |

Sorted by “Kc cell number, rep 1” (lowest first): 2 of the entries above.
| Gene | dsRNA no. | Kc cell number, rep 1 | Kc cell number, rep 2 | S2R+ cell number, rep 1 | S2R+ cell number, rep 2 | Call |
| --- | --- | --- | --- | --- | --- | --- |
| Spn47C (Serpin 47C) | 1 | 1.19e6 | 1.29e6 | 1.01e6 | 1.01e6 | inactive |
| Hsf (Heat shock factor) | 1 | 1.26e6 | 1.32e6 | 1.08e6 | 1.14e6 | inactive |
